Experimental data: PubChem BioAssay AID1259405 (NCATS, 2018)

Screen: 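Silenced genes that increase secreted GFP made by CHO cells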 (primary screen)
System: Chinese hamster CHO-K1 ovary cells with stable secreted eGFP expression
Reagents: single siRNA against mouse genes, 0.8 pmol siRNA per well (2 µl of 400 nM stock)
Duration: 3 days
Measurement: 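Percent of the per-plate non-targeting control median for intracellular GFP per well by laser scanning cytometry and for cell viability by ATP luminescence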
Direction: GFP, % of control: higher = more GFP per well, higher productivity; viability (ATP), % of control: higher = more viable cells (more ATP)
Rule for the call: 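a knock-down is called active if GFP reaches 120% or more of non-targeting control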
Shown is one part, drawn at random, of about 50,000 deposited reagents. Of all reagents, about 4,000 (8%) were called active. 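Mouse siRNA library applied to hamster cells; one well for each siRNA.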 Unmarked entries are inactive. Reagents against one gene are numbered here. No sequences are given here.

Gene	reagent	GFP, % of control	viability (ATP), % of control
Gltp	1	45.7	66.3
Gltp	2	63	48.2
Gltp	3	51.4	51.5
Fam135b	1	72.9	87.1
Fam135b	2	99	94.8
Fam135b	3	71.1	71.9
Fam135b	4	90.9	110
Fam135b	5	81.7	90
Fam135b	6	55.8	69.6
Irx6	1	53.9	52.9
Irx6	2	38.5	53.2
Irx6	3	87.3	104
Or7e170	1	28.4	30.8
Or7e170	2	58.5	61.7
Or7e170	3	109	114
Traf3ip3	1	110	92.8
Traf3ip3	2	82.1	86.6
Actbl2	1	80.9	78.3
Actbl2	2	67.4	80.5
Actbl2	3	81.4	73.4
Tagln2	1	65.6	63.1
Tagln2	2	105	64.1
Tagln2	3	56.6	40.7
Cd86	1	140 (active)	85
Cd86	2	46.1	58
Cd86	3	69.6	75.4
Pde6a	1	93.3	97.4
Pde6a	2	110	56.6
Pde6a	3	105	69.4
Scarb2	1	93.1	115
Scarb2	2	52.6	56.7
Scarb2	3	89.4	73.9
Or2a25	1	81.9	56.5
Or2a25	2	69.5	73.3
Or2a25	3	62.3	47.9
Mpv17	1	30.4	12.1
Mpv17	2	80.5	85.1
Mpv17	3	47.1	43.6
Ankrd40	1	106	48.5
Ankrd40	2	57.2	48.6
Ankrd40	3	75.3	95.6
Unc45a	1	81.5	67.2
Unc45a	2	82.4	56.1
Unc45a	3	66.7	74.7
Dnajc10	1	125 (active)	76.3
Dnajc10	2	61.6	39
Dnajc10	3	93.8	55.6
B4galnt1	1	42.8	62.6
B4galnt1	2	204 (active)	110
Ccdc71l	1	77	83.1
Ccdc71l	2	79	59.5
Ccdc71l	3	102	95.8
Neurod2	1	83.9	96
Neurod2	2	74.9	70.1
Neurod2	3	115	126
Kyat1	1	89.8	83.6
Kyat1	2	105	124
Kyat1	3	87.6	93.3

A run of entries of the results above:
Gene	reagent	GFP, % of control	viability (ATP), % of control
Dnajc10	2	61.6	39
Dnajc10	3	93.8	55.6
B4galnt1	1	42.8	62.6
B4galnt1	2	204 (active)	110
Ccdc71l	1	77	83.1
Ccdc71l	2	79	59.5
Ccdc71l	3	102	95.8
